Data as given in US20260217702A1, “NOVEL IMIDAZOQUINOLINES WITH IMMUNOSTIMULATORY EFFECTS” (Synovo GmbH, priority 2022, published 2026).
Some entries share one result that the patent states for a list of compounds.

System: MC38 tumor
Experiment: Application in cancer therapy: MC38 tumor co-injected with myofibroblasts in C57B6 mice
Assay type: in vivo
Settings: MC38, compound alone 6 μmol/kg, for up to 72 h following treatment

| SMILES | tumors remain static or decrease in size |
| --- | --- |
| CCCCc1nc2c(N)nc3ccccc3c2n1CC1CCNCC1 [Example E1, 2-butyl-1-(piperidin-4-ylmethyl)-1H-imidazo[4,5-c]quinolin-4-amine] | up to 30% |
| CCCCc1nc2c(N)nc3ccccc3c2n1CCC1CCN(C(=O)CN(C)CC(=O)N(C)[C@H]2C[C@@H](C)O[C@@H](C[C@@H]3[C@@H](C)[C@H](O[C@H]4C[C@@](C)(OC)[C@@H](O)[C@H](C)O4)[C@@H](C)C(=O)O[C@H](CC)[C@@](C)(O)[C@H](O)[C@@H](C)N(C)C[C@H](C)C[C@@]3(C)O)[C@@H]2O)CC1 [Example E13] | up to 30% |
